For at least one entry, the source does not settle the construct or the ends of the probe. For some assays here: Negatives hold for the conditions tested.
Legend:
[1] = biological target: HsRAD51(F129V) (Homo sapiens) (UniProt Q06609); assay: SPR; conditions: SPR (Biacore 3000): 20 mM HEPES pH 7.5, 10% glycerol, 1 mM DTT, 1 mM MgCl2, 0.005% P-20, 2.5 mM indicated nucleotide, recombinant protein; for Kd: ATP (2.5 mM); for binding result: no nucleotide, Kd NA
[2] = biological target: HsRAD51(H294V) (Homo sapiens) (UniProt Q06609); assay: SPR; conditions: ATP (2.5 mM), text: largely defective in binding despite the Kd; SPR (Biacore 3000): 20 mM HEPES pH 7.5, 10% glycerol, 1 mM DTT, 1 mM MgCl2, 0.005% P-20, 2.5 mM indicated nucleotide; recombinant protein; label: 5' biotin; single-stranded DNA

The chains behind the UniProt entries cited, without tags or fusion partners.
UniProt Q06609, whole entry F129V: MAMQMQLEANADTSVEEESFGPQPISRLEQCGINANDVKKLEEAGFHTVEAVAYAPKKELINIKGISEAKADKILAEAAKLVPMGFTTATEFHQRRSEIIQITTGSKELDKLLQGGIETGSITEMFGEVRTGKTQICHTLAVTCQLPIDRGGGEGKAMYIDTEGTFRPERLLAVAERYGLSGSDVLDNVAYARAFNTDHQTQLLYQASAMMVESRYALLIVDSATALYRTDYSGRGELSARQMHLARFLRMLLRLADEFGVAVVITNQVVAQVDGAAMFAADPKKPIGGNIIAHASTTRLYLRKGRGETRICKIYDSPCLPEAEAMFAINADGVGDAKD
UniProt Q06609, whole entry H294V: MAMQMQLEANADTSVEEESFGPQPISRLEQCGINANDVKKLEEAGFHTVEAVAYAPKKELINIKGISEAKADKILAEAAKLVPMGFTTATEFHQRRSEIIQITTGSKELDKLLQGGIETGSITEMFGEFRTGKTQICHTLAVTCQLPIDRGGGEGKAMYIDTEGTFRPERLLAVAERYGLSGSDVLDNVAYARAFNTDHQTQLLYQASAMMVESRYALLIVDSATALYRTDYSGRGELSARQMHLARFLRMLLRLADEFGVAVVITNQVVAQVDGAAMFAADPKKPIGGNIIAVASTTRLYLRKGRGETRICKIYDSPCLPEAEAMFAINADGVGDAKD

Row | Sequence | Kd ([1]; text: only wild type bound dsDNA, label: 5' biotin on strand 1) [nM] | binding result ([1]; label: 5' biotin on strand 1) | Kd ([1]; text: largely defective in binding despite the Kd, label: 5' biotin, single-stranded DNA) [nM] | binding result ([1]; label: 5' biotin, single-stranded DNA) | Kd [2] [nM]
1 | TCGAGAGGGTAAACCACAATTATTGATATAAAATAGTTTTGGGTAGGCGA (double strand) [50 bp dsDNA] | 508 | no binding |  |  | 
2 | TTTTTTTTTTTTTTTTTTTTTTTTTTTTTTTTTTTTTTTTTTTTTTTTTT [dT50] |  |  | 60 | no binding | 47
